From patent publication US4810636A, “Chromogenic acridinone enzyme substrates” (Miles Inc., priority 1987, dated 1989)
For at least one compound, name, drawing or mass did not settle the structure.

Tested on: alkaline phosphatase
Assay: Hydrolysis of the phosphate substrate by alkaline phosphatase (KM, Kcat)
Assay type: biochemical
Settings: 1.0M diethanolamine buffer (pH=9.8) containing 5.0 mM MgCl2

O=[N+]([O-])c1ccc(OP(=O)(O)O)cc1 [p-nitrophenylphosphate, reference compound]
Kcat: 4.16×10^55 mol/min/mol of enzyme | Km: 970 µM
